Values from PubChem BioAssay AID1259308 (NCATS, 2017)
Assay: 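Candidate targets for better recombinant protein yield in mammalian cells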 (primary screen). System: human HEK293 embryonic kidney cells stably expressing firefly luciferase (HEK-CMV-Luc2-Hygro). Reagents: single siRNA against human genes, 0.8 pmol siRNA per well. Time to read-out: 72 h. Detection: 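Reporter luminescence and viable-cell signal on separate replicate plates, given as percent of non-targeting control and median/MAD z-scores, plus per-cell luciferase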. Scale: total luciferase, z-score and total luciferase, % of control: higher = more reporter protein produced; luciferase per cell, z-score: higher = more reporter output per viable cell; viable cells, % of control: higher = more viable cells. Active means: 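An siRNA counts as active if its total luciferase robust z-score exceeds 3; genes with two or more such siRNAs out of three were retested with fresh siRNAs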. Meaning of the calls: active = raised luciferase; inactive = no rise.
In all, the deposit lists about 59,000 reagents; shown is a random part of them. About 1,510 of all reagents (2.6%) count as active. 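Calls use total luciferase alone and ignore viability, so some active siRNAs may act by altering cell number.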 Entries without a mark were called inactive. Reagents against one gene are numbered here.

| target | reagent | total luciferase, z-score | total luciferase, % of control | luciferase per cell, z-score | viable cells, % of control |
| --- | --- | --- | --- | --- | --- |
| C16orf90 (chromosome 16 open reading frame 90) | 1 | 0.609 | 94 | 1.54 | 70 |
| C16orf90 (chromosome 16 open reading frame 90) | 2 | 0.452 | 90.9 | 1.1 | 76 |
| C16orf90 (chromosome 16 open reading frame 90) | 3 | 1.37 | 109 | 1.71 | 77.9 |
| PDE4DIPP6 (PDE4DIP pseudogene 6) | 1 | 2 | 122 | 0.685 | 114 |
| PDE4DIPP6 (PDE4DIP pseudogene 6) | 2 | -0.239 | 77.1 | 0.501 | 75.6 |
| PDE4DIPP6 (PDE4DIP pseudogene 6) | 3 | -0.505 | 71.8 | -0.53 | 92.3 |
| SPATA4 (spermatogenesis associated 4) | 1 | 0.0268 | 82.4 | 0.653 | 77.6 |
| SPATA4 (spermatogenesis associated 4) | 2 | 0.243 | 86.7 | 0.374 | 87.8 |
| SPATA4 (spermatogenesis associated 4) | 3 | -0.826 | 65.5 | -0.979 | 94.7 |
| POPDC2 (popeye domain cAMP effector 2) | 1 | 1.64 | 114 | 1.21 | 93 |
| POPDC2 (popeye domain cAMP effector 2) | 2 | -1.47 | 52.6 | -1.5 | 87.2 |
| POPDC2 (popeye domain cAMP effector 2) | 3 | -0.851 | 65 | -0.538 | 83.6 |
| RBM48 (RNA binding motif protein 48) | 1 | -0.492 | 72.1 | -0.356 | 88.5 |
| RBM48 (RNA binding motif protein 48) | 2 | 0.509 | 92 | 0.209 | 97.3 |
| RBM48 (RNA binding motif protein 48) | 3 | 0.837 | 98.5 | 0.659 | 92.6 |
| DLK1 (delta like non-canonical Notch ligand 1) | 1 | 1.09 | 104 | 0.637 | 97.9 |
| DLK1 (delta like non-canonical Notch ligand 1) | 2 | -0.533 | 71.3 | 0.289 | 73.8 |
| DLK1 (delta like non-canonical Notch ligand 1) | 3 | 0.266 | 87.2 | -0.371 | 107 |
| MAGEA1 (MAGE family member A1) | 1 | -1.17 | 58.7 | -1.78 | 105 |
| MAGEA1 (MAGE family member A1) | 2 | -0.76 | 66.8 | -0.381 | 82.5 |
| MAGEA1 (MAGE family member A1) | 3 | -0.401 | 73.9 | -1.38 | 119 |
| MEGF11 (multiple EGF like domains 11) | 1 | 1.17 | 105 | 0.5 | 103 |
| MEGF11 (multiple EGF like domains 11) | 2 | 2.37 | 129 | 1.67 | 92.8 |
| MEGF11 (multiple EGF like domains 11) | 3 | 2.72 | 136 | 1.52 | 102 |
| HCFC2 (host cell factor C2) | 1 | 0.178 | 85.4 | 0.103 | 92.9 |
| HCFC2 (host cell factor C2) | 2 | -0.169 | 78.5 | -0.769 | 107 |
| HCFC2 (host cell factor C2) | 3 | -0.6 | 70 | -0.553 | 90.4 |
| ZBTB1 (zinc finger and BTB domain containing 1) | 1 | 0.601 | 93.8 | 0.544 | 90.9 |
| ZBTB1 (zinc finger and BTB domain containing 1) | 2 | -0.532 | 71.3 | -0.103 | 81.9 |
| ZBTB1 (zinc finger and BTB domain containing 1) | 3 | 0.154 | 84.9 | -0.132 | 98.3 |
| FBXL3 (F-box and leucine rich repeat protein 3) | 1 | 1.15 | 105 | 0.327 | 107 |
| FBXL3 (F-box and leucine rich repeat protein 3) | 2 | -1.66 | 48.8 | -2.08 | 94.2 |
| FBXL3 (F-box and leucine rich repeat protein 3) | 3 | 0.124 | 84.3 | 0.623 | 80 |
| GPR55 (G protein-coupled receptor 55) | 1 | -1.68 | 48.5 | -0.824 | 67.3 |
| GPR55 (G protein-coupled receptor 55) | 2 | 0.803 | 97.9 | 1.15 | 80.7 |
| GPR55 (G protein-coupled receptor 55) | 3 | 0.0247 | 82.4 | 0.447 | 81.8 |
| MOGAT3 (monoacylglycerol O-acyltransferase 3) | 1 | -0.717 | 67.6 | -0.761 | 92.3 |
| MOGAT3 (monoacylglycerol O-acyltransferase 3) | 2 | -0.0961 | 80 | -0.518 | 102 |
| MOGAT3 (monoacylglycerol O-acyltransferase 3) | 3 | -1.11 | 59.9 | -0.589 | 78.1 |
| KIF26A (kinesin family member 26A) | 1 | 0.175 | 85.4 | 0.0782 | 93.4 |
| KIF26A (kinesin family member 26A) | 2 | -1.18 | 58.3 | -0.642 | 77.2 |
| KIF26A (kinesin family member 26A) | 3 | 0.252 | 86.9 | 0.497 | 85.2 |
| ANKRD65 (ankyrin repeat domain 65) | 1 | -0.405 | 73.8 | 2.22 | 45.9 |
| ANKRD65 (ankyrin repeat domain 65) | 2 | 1.7 | 116 | 0.883 | 103 |
| ANKRD65 (ankyrin repeat domain 65) | 3 | 0.462 | 91.1 | 1.01 | 78 |
| KBTBD6 (kelch repeat and BTB domain containing 6) | 1 | 1.36 | 109 | 0.74 | 100 |
| KBTBD6 (kelch repeat and BTB domain containing 6) | 2 | 0.571 | 93.2 | 0.0236 | 104 |
| KBTBD6 (kelch repeat and BTB domain containing 6) | 3 | 0.192 | 85.7 | 0.131 | 92.5 |
| PPP1CB (protein phosphatase 1 catalytic subunit beta) | 1 | 0.41 | 90 | 0.952 | 78.3 |
| PPP1CB (protein phosphatase 1 catalytic subunit beta) | 2 | 0.0909 | 83.7 | 1.33 | 65.8 |
| PPP1CB (protein phosphatase 1 catalytic subunit beta) | 3 | 1.28 | 107 | 0.821 | 96.7 |
| CREG1 (cellular repressor of E1A stimulated genes 1) | 1 | 2.26 | 127 | 1.34 | 99.7 |
| CREG1 (cellular repressor of E1A stimulated genes 1) | 2 | 2.42 | 130 | 1.76 | 91.4 |
| CREG1 (cellular repressor of E1A stimulated genes 1) | 3 | 0.0328 | 82.5 | -0.587 | 108 |
| RAB5CP2 (RAB5C, member RAS oncogene family pseudogene 2) | 1 | 0.758 | 97 | 0.335 | 99.2 |
| RAB5CP2 (RAB5C, member RAS oncogene family pseudogene 2) | 2 | -0.0831 | 80.2 | 0.474 | 79.1 |
| RAB5CP2 (RAB5C, member RAS oncogene family pseudogene 2) | 3 | 2.21 | 126 | 2.42 | 74.3 |

Quoted from above, 9 entries:
| target | reagent | total luciferase, z-score | total luciferase, % of control | luciferase per cell, z-score | viable cells, % of control |
| --- | --- | --- | --- | --- | --- |
| RBM48 (RNA binding motif protein 48) | 2 | 0.509 | 92 | 0.209 | 97.3 |
| RBM48 (RNA binding motif protein 48) | 3 | 0.837 | 98.5 | 0.659 | 92.6 |
| DLK1 (delta like non-canonical Notch ligand 1) | 1 | 1.09 | 104 | 0.637 | 97.9 |
| DLK1 (delta like non-canonical Notch ligand 1) | 2 | -0.533 | 71.3 | 0.289 | 73.8 |
| DLK1 (delta like non-canonical Notch ligand 1) | 3 | 0.266 | 87.2 | -0.371 | 107 |
| MAGEA1 (MAGE family member A1) | 1 | -1.17 | 58.7 | -1.78 | 105 |
| MAGEA1 (MAGE family member A1) | 2 | -0.76 | 66.8 | -0.381 | 82.5 |
| MAGEA1 (MAGE family member A1) | 3 | -0.401 | 73.9 | -1.38 | 119 |
| MEGF11 (multiple EGF like domains 11) | 1 | 1.17 | 105 | 0.5 | 103 |
